From PubChem BioAssay AID493014 (National Center for Advancing Translational Sciences (NCATS), 2011)
Among all 340,000 compounds or so, about 170 (0.05%) were called active. Inconclusive means that the source gave no clear call. Such entries were picked first, then a sample of the others. The call rests on the fitted dose curve; in most records, active means well fitted inhibition curve with a large enough effect in the signal ratio, with a control signal flat (not every such curve was filed as active); inconclusive means small, poorly fitted or top-dose-only effect, or effect the other way, or a change in a side signal; inactive means flat fitted curve, though single readings scatter; the % refers to the signal ratio. Potencies of inconclusive entries are doubtful fits and often do not repeat.

Test: qHTS Assay to Find Inhibitors of Chronic Active B-Cell Receptor Signaling;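 on activity change, negative = inhibition: plate controls were basal doxycycline-induced cells for no effect and cells given 10 µM MG132 for full effect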
Conditions: ABC-DLBCL IkBa-CBG/CBR reporter, luminescence ratio (green luciferase fused to IkBa over red control in TMD8 lymphoma cells), 4 h; activity change, negative = inhibition: at 46.1 µM (top of the series) unless noted
How it was run: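 Doxycycline induced both beetle luciferases in TMD8 lymphoma cells; IKK-driven degradation limits the IkappaBalpha-fused green signal, while red luminescence normalises for cell number and nonspecific effects. Compounds tested up to 46 uM, 4 hrs.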
Potency means the concentration at half of the fitted maximal effect.

| SMILES | activity change, negative = inhibition | Potency |
| --- | --- | --- |
| Cc1cc(C)cc(N2CC(C(=O)O)CC2=O)c1 (stereo not drawn) | inconclusive: 5.65% | – |
| O=C(C1CC1)N1N=C(c2ccccc2)CC1(O)C(F)(F)C(F)(F)F (stereo not drawn) | inconclusive: 2.96% | – |
| Cc1cc(C)cc(NC(=O)C(=O)NCC2CCCN2S(=O)(=O)c2cccs2)c1 (stereo not drawn) | – | inconclusive: 29.1 µM [falling, single point] |
| CC(OC(=O)c1ccncc1)C(=O)Nc1ccc([N+](=O)[O-])cc1Cl (stereo not drawn) | inactive | – |
| Cc1ccc(NC(=O)CN(C)C(=O)c2nn(C)c(=O)c3ccccc23)cc1 | – | inconclusive: 0.631 µM [falling, partial curve, poor fit] |
| COc1cccc2c(N/N=C/c3ccccc3)cc(C)nc12 | inactive | – |
| COc1ccccc1C(=O)COC(=O)CNS(=O)(=O)c1ccc(NC(C)=O)cc1 | inconclusive: 5.01% | – |
| O=C(NCCc1ccccc1)NC1CCCCC1 | – | inconclusive: 23.1 µM [falling, partial curve] |
| CCCN1C(=O)CN(C2CCCCC2)C(=O)C1c1ccc(OC)c(OC)c1 (stereo not drawn) | inconclusive: -1.03% | – |
| CC(=O)N/N=C\c1ccccc1OC/C=C/c1ccccc1 | inconclusive: 6.96% | – |
| Cc1nn(C)c(Cl)c1CN1CCCC(CO)(Cc2cccc(Cl)c2)C1 (stereo not drawn) | inconclusive: -17.2% | – |
| C=C1SC(=Nc2ccccc2Cl)N(C(=O)c2sc3ccccc3c2Cl)C12CCCCC2 | inconclusive: 16% | – |
| CCOC(=O)CSc1nc(COc2ccccc2)nc2ccccc12 | inconclusive: -15.2% | – |
| COc1ccc(/C=N\Nc2ccccc2[N+](=O)[O-])c(C(=O)O)c1OC | inconclusive: 1.42% | – |
| CSc1cccc(NC(=O)c2cc(S(=O)(=O)N3CCc4ccccc43)cn2C)c1 | inactive | – |
| CN(Cc1c(C(=O)N/N=C/c2cccc(O)c2)nnn1-c1nonc1N)C1CCCCC1 | – | inconclusive: 22.4 µM [falling, single point] |
| CCC1Nc2ncnc(N3CCOCC3)c2N(Cc2ccccc2)C1=O (stereo not drawn) | inactive | – |
| COc1cc2c(cc1OC)C1=C(C#N)CC/C(=N\S(=O)(=O)c3ccccc3)N1CC2 | inconclusive: -19% | – |
| O=C(Nc1ccc(N2CCCC2)cc1)c1cccc(F)c1 | – | inconclusive: 29.1 µM [falling, single point] |
| Cc1csc(NC(=O)CSc2nc3ccccc3c(=O)[nH]2)n1 | – | inconclusive: 0.92 µM [falling, full curve, poor fit] |
| Cc1occc1C(=O)Nc1ccccc1C(=O)O | inconclusive: -10% | – |
| CC(C)(C)c1ccc(C(CC(=O)O)NC(=O)CCCc2ccccc2)cc1 (stereo not drawn) | inactive | – |
| O=C(Nc1ccccc1C(=O)O)c1cncc(Br)c1 | – | inconclusive: 25.9 µM [rising, single point] |
| N#C/C(=C/c1ccc(F)cc1)c1nnc(NC(=O)c2ccccc2)s1 | inconclusive: 6.51% | – |
| O=c1[nH]c(CN2CCC(c3nc4ccccc4s3)CC2)nc2sc3c(c12)CCC3 | inconclusive: 1.78% | – |
| CCOC(=O)C1=NNC2(CC(=O)N(c3cc(C)cc(C)c3)C2=O)C1 (stereo not drawn) | inconclusive: 0.0226% | – |
| NC1=NC(=Nc2ccc(Br)cc2)c2ccccc21 | – | inconclusive: 29.1 µM [falling, single point] |

In a second layout: entries from further up
SMILES	activity change, negative = inhibition	Potency
Cc1nn(C)c(Cl)c1CN1CCCC(CO)(Cc2cccc(Cl)c2)C1 (stereo not drawn)	inconclusive: -17.2%	–
CC(C)(C)c1ccc(C(CC(=O)O)NC(=O)CCCc2ccccc2)cc1 (stereo not drawn)	inactive	–

Continued:

| SMILES | activity change, negative = inhibition | Potency |
| --- | --- | --- |
| O=c1oc([C@@H](O)c2ccccc2)cc2ccccc12 | inconclusive: 3.02% | – |
| Cc1cc(Cl)cc(Cl)c1OCCOCCN(C)C | inconclusive: 1.08% | – |
| O=C(NC1=NCCS1)C1COc2ccccc2O1 (stereo not drawn) | – | inconclusive: 25.1 µM [falling, single point] |
| O=[N+]([O-])c1ccccc1-c1ccc(CN2CCN(c3ccccc3)CC2)o1 | inactive | – |
| O=C(Cn1ncc(Cl)c(Cl)c1=O)NCC1CCCCC1 | inconclusive: 1.56% | – |
| CCOCC(=O)Nc1cc(C(F)(F)F)ccc1Oc1cccc(Br)c1 | – | inconclusive: 7.08 µM [rising, partial curve, poor fit] |
| O=S(=O)(c1ccc(F)cc1)n1ccc(-c2cnc(-c3ccccc3)s2)n1 | inconclusive: 17.4% | – |
| O=c1c(-c2cnn(-c3ccccc3)c2)coc2cc(O)ccc12 | – | inconclusive: 11.2 µM [falling, partial curve] |
| CCCN(Cc1nc2cc(Cl)ccc2c(=O)[nH]1)C(=O)c1ccc(S(=O)(=O)N2CCCC2)cc1 | – | inconclusive: 32.6 µM [falling, partial curve, poor fit] |
| CC(=O)N1CCN(C(=O)COC(=O)COc2ccc(C#N)cc2)CC1 | inactive | – |
| O=C(COc1ccccc1)NNc1c2ccccc2nc2ccccc12 | inconclusive: 14.9% | – |
| CN(CCCCOc1ccc(F)cc1)Cc1ccccc1 | inactive | – |
| COC(=O)C1=C(C)N=c2s/c(=C/c3cccs3)c(=O)n2C1c1ccc(F)cc1 (stereo not drawn) | inconclusive: 20.2% | – |
| CCCCCCOc1ccc(OCC(O)CN2C(=O)NC(C)(C)C2=O)cc1 (stereo not drawn) | inconclusive: -0.412% | – |
| CC(=O)Nc1cccc(Oc2ncnc3scc(-c4ccccc4)c23)c1 | – | inconclusive: 14.6 µM [falling, partial curve] |
| COc1ccc(S(=O)(=O)Nc2ccc(S(=O)(=O)N3CCCCC3)cc2)cc1C | inconclusive: -1.68% | – |
| O=C(NCc1ccccc1)c1cc2ccccc2o1 | inconclusive: -26.2% | – |
| COc1ccc(OC)c2sc(N(Cc3cccnc3)C(=O)c3ccc(C(C)=O)cc3)nc12 | inconclusive: -0.548% | – |
| CCc1ccc(/C([O-])=C(/C(=S)NCCN2CCOCC2)[n+]2ccccc2)cc1 | inactive | – |
| CCC(C)NS(=O)(=O)c1ccc(OC)c(Cl)c1Cl (stereo not drawn) | inconclusive: 11.2% | – |
| O=C(Nc1ccc2nn(-c3ccccc3)nc2c1)c1ccc2c(c1)OCO2 | – | inconclusive: 10.3 µM [falling, partial curve] |
| CN(CC(=O)O)Cc1nc2ccccc2[nH]1 | inconclusive: 22.8% | – |
| Cn1c(=O)c2[nH]c(-c3cccnc3)nc2n(C)c1=O | inconclusive: 3.36% | – |
| c1ccc(CNc2nnnn2-c2ccccc2)cc1 | inconclusive: 11.7% | – |
| CC(C)C(=O)Nc1ccc(Nc2ccccc2)cc1 | inconclusive: -0.26% | – |
| Cc1onc(-c2ccccc2)c1C(=O)N/N=C/c1cn(C)c2ccccc12 | – | inconclusive: 10 µM [falling, partial curve] |
